This note sets out measurements from publication doi:10.1101/2021.04.27.441574.

In one assay the target is T1, GlpD-HA-His6 (E. coli) (UniProt P13035).
T1 sequence: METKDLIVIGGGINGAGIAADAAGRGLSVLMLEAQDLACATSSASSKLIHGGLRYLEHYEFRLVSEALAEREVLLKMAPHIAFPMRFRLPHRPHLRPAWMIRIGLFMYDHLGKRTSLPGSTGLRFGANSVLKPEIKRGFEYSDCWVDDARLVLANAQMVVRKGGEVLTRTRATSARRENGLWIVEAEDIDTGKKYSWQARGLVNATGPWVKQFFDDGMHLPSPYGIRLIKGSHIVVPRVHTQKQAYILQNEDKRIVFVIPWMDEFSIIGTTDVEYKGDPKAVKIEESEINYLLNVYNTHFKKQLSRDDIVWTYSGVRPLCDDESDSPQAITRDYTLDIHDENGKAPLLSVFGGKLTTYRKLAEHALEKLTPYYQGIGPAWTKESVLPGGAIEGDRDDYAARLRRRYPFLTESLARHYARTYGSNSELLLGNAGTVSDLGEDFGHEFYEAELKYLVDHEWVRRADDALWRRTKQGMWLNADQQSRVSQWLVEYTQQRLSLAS
Kind of assay: co-IP.

In another assay the target is T2, MgtA-HA (E. coli) (UniProt P0ABB8).
T2 sequence: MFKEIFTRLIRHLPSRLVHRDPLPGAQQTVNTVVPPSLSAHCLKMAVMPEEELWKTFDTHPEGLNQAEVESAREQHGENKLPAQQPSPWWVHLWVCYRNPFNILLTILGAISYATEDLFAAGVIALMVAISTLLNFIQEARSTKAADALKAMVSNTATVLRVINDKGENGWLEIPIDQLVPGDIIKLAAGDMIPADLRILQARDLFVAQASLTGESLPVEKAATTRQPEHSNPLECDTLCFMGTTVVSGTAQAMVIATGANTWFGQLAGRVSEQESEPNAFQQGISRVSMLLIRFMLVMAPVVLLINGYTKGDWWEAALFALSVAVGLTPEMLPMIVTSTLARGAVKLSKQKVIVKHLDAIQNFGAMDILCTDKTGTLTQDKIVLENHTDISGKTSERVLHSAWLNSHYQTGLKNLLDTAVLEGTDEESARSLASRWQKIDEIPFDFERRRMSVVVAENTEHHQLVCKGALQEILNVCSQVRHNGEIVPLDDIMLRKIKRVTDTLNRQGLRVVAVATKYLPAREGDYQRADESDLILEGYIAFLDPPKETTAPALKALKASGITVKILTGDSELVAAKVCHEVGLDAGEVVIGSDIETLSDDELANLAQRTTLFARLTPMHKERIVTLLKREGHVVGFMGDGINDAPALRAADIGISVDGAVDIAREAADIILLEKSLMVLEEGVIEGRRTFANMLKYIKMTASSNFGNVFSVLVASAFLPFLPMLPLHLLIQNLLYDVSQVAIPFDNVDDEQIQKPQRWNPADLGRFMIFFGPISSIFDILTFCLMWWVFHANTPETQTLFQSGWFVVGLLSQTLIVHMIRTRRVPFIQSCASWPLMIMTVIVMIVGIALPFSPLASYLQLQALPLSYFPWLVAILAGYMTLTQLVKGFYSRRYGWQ
Kind of assay: co-IP.

No constants are given. Whether binding was seen depends on the method and setting. Binding seen in cells or lysates may run through a third protein. Some results given as binding are weak or reduced against the parent protein; the word gives no strength. Sequences can lack the tags named with a protein.

B1: AzuC-SPA (peptide, UniProt C1P605 1-28)
chain: MKLRKILKSMFNNYCKTFKDVPPGNMFR
For the molecule B1, the binding result was “binds” with GlpD-HA-His6 (E. coli) and “no binding” with MgtA-HA (E. coli).
